From article PMC4858740 come the findings set out here.

By UniProt entry, the sequences of proteins in these tests, tags left out. Residues count along the entry.
UniProt Q96DU3, residues 22-332: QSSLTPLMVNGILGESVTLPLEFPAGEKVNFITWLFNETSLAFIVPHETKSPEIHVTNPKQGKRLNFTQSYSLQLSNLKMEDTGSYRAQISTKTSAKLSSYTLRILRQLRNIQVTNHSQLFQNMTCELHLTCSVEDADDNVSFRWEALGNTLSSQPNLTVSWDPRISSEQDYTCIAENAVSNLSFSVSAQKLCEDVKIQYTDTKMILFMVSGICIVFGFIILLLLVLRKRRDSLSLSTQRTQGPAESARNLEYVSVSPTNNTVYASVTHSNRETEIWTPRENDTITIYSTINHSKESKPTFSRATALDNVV
UniProt P29350: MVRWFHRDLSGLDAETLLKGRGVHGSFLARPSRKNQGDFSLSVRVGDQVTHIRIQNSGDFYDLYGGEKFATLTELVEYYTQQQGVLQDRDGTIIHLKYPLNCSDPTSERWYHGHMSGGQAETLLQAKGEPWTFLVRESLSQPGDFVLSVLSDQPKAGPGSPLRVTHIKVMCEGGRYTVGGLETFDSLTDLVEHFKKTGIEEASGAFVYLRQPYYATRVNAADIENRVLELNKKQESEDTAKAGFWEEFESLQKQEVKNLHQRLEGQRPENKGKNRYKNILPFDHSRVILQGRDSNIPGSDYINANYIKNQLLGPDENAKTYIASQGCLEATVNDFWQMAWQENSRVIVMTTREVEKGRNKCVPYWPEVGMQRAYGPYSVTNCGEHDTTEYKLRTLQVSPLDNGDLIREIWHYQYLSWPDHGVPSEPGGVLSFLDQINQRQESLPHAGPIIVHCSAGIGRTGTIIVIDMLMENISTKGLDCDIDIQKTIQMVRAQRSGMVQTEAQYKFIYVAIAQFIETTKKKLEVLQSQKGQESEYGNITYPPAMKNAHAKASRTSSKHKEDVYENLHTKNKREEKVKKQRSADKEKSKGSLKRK

No constants are given. Whether binding was seen depends on the method and setting. In cells and extracts the contact can be indirect. Some entries that bind do so weakly or less than the wild type.

Assay [1] has as its target SLAMF6, endogenous in HEL cells (human (endogenous in HEL)) (UniProt Q96DU3). Put plainly: co-IP.
Assay [2] has as its target T1, SLAMF5, endogenous in HEL cells (human (endogenous in HEL)) (UniProt Q9UIB8).
T1 sequence: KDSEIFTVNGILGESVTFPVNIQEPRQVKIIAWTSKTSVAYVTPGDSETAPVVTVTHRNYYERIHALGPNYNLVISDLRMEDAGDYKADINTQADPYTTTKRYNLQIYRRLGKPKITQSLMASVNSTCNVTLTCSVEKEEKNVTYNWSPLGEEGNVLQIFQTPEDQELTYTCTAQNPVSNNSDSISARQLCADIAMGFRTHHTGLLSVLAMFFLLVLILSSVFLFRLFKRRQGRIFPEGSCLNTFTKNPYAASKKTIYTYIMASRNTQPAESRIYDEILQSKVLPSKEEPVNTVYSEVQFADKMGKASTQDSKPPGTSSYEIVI
Description: co-IP.

For the substance “SHP-1 (from UniProt P29350 1-595) (enzyme)”, the binding entry in assay [1] and in assay [2] was “binds” in each case.
